Drawing on PubChem BioAssay AID445 (National Center for Advancing Translational Sciences (NCATS), 2006), this text covers AC50 for 62 compounds.

Some of the results follow. Shown are side measurements of this screen, not its main read-out; they come without a call. The list favours compounds with an active or inconclusive main result. Words in brackets tell the shape of the fitted curve; partial curves, single points and poor fits give uncertain potencies.

The assay in a line: IkB Signaling. The note with it: ABC-DLBCL IkBa-CBG/CBR dual luciferase ratio (green luciferase fused to IkBa over red control in OCI-Ly3 lymphoma cells), 4 h. In a few lines:
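Luminescence ratio of IκBα-fused green versus native red beetle luciferase in OCI-Ly3 cells, 4 h post-doxycycline with compound; red signal alone, scaled from basal (0%) to zero light (-100%), flagged nonspecific or cytotoxic effects.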

The mark [1] stands for this setting: measured here: control luc red channel unless noted.
Where [2] appears, read: measured here: IkB-luc green channel.
Setting [3] is: measured here: control luc red channel.

For `COc1cccc(NC(=O)/C(C#N)=C\c2cn(Cc3ccc(C)cc3)c3ccccc23)c1`, the AC50 under setting [1] is 2.51 µM [falling, partial curve].

As to `O=C(c1ccc(C(F)(F)F)cc1)N1CCC(c2nc(-c3ccc(S(=O)(=O)N4CCCC4)cc3)no2)CC1`, the AC50 under setting [1] is 15.8 µM [falling, partial curve].

Consider `COc1cc2c(cc1O)C(SC)=NC(C)(C)C2`, for which the AC50 under setting [2] was 6.31 µM [rising, single point] and the half-maximal activity concentration (AC50) under setting [3] is 39.8 µM [falling, single point].

Take `Cc1cccc(C)c1NC(=O)c1csc2c1CCCC2`: the AC50 under setting [1] was 25.1 µM [falling, single point].

As to `O=C(NCCCc1nc2ccccc2n1Cc1cccc(Cl)c1)c1ccco1`, under setting [1], the concentration at half-maximal activity (AC50) was 15.8 µM [falling, single point].

On to `Cc1cccnc1NC(=O)COc1ccc2oc3c(c2c1)CCCC3`, for which, under setting [1], the AC50 is 39.8 µM [falling, single point].

As for `CCn1c(SCc2nc3ccccc3s2)nnc1-c1cccs1`, the half-maximal activity concentration (AC50) under setting [1] is 5.01 µM [falling, partial curve].

For the compound `Cc1ccccc1NC(=O)c1ccc2nc(Cc3ccccc3)oc2c1`, the AC50 under setting [1] was 25.1 µM [falling, single point].

As to `CC(=O)C1=C(C)NC(SCC(=O)c2ccc(Cl)cc2Cl)=C(C#N)C1c1ccco1` (stereo unspecified), the concentration at half-maximal activity (AC50) under setting [1] is 12.6 µM [falling, partial curve].

`C=Cc1ccc(Cn2c(C(=O)O)c(CNCc3cccs3)c3ccc(C)cc32)cc1`: the concentration at half-maximal activity (AC50) under setting [1] was 15.8 µM [falling, partial curve].

With `COc1ccccc1C(=O)Nc1c(C(=O)N(CCN(C)C)Cc2ccco2)oc2ccccc12`, the AC50 under setting [1] was 39.8 µM [falling, single point].

For `Cn1c(SCc2ccc(F)cc2)nc2c([nH]c3ccccc32)c1=O`, the AC50 under setting [1] was 0.2 µM [falling, full curve, poor fit].

Regarding `COc1cccc(CNC(=O)C2CCN(c3nc4ccc(Cl)cc4[nH]3)CC2)c1`, the AC50 under setting [1] was 12.6 µM [falling, partial curve].

For the compound `Cc1ccc(C2c3c(-c4ccccc4O)n[nH]c3C(=O)N2CCCO)cc1` (stereo unspecified), the AC50 under setting [1] is 39.8 µM [falling, single point].

In the case of `CCOC(=O)c1cccc(NC(=O)c2ccc3c(c2)nnn3C2CCCC2)c1`, under setting [1], the AC50 is 31.6 µM [falling, single point].

Consider `Cc1ccc(Cn2c(C(=O)Nc3cccc(Cl)c3)cc3sccc32)cc1`, for which, under setting [1], the AC50 was 39.8 µM [falling, single point].

Regarding `COc1ccc2c(c1)CC(NC(=O)Nc1cc(Cl)ccc1OC)CO2` (stereo unspecified), the AC50 under setting [1] is 0.2 µM [falling, partial curve].

With `CSc1nc(C)cc(Nc2c(C)cc(C)cc2C)n1`, the concentration at half-maximal activity (AC50) under setting [1] is 31.6 µM [falling, single point].

Consider `COC(=O)c1ccc(CSc2nc(C(F)(F)F)c3c(c2C#N)CCC3)o1`, for which the concentration at half-maximal activity (AC50) under setting [1] is 39.8 µM [rising, single point] [measured here: IkB-luc green channel].

As to `COc1cccc(C(=O)Nc2ccc(Cl)c(-c3nc4ccccc4[nH]3)c2)c1`, the concentration at half-maximal activity (AC50) under setting [1] was 25.1 µM [falling, partial curve].

As for `O=C(c1cc(-c2ccc(O)cc2)on1)N1CCc2ccccc2C1`, the AC50 under setting [1] was 20 µM [falling, partial curve].

As for `Fc1ccc2c(Cl)c(-c3nnc(-c4cccs4)o3)sc2c1`, the half-maximal activity concentration (AC50) under setting [1] was 0.00794 µM [falling, full curve].

Regarding `CC1=C(C(=O)Nc2ccccc2C)C(c2ccncc2)n2nc(SCc3ccccc3)nc2N1` (stereo unspecified), the AC50 under setting [1] is 0.251 µM [falling, partial curve].

Consider `CCN1CCN(c2cc(C)c3cc(NC(=O)c4cccc(C(F)(F)F)c4)ccc3n2)CC1`, for which the half-maximal activity concentration (AC50) under setting [1] was 39.8 µM [falling, single point].

`CCOc1ccccc1OCCCC(=O)Nc1ccc(OC)nc1`: under setting [1], the half-maximal activity concentration (AC50) is 20 µM [falling, partial curve].

In the case of `CCOC(=O)c1ccc(NC(=O)CC2C(=O)N(c3cccc(OC)c3)C(=O)N2C2CCCCC2)cc1` (stereo unspecified), the concentration at half-maximal activity (AC50) under setting [1] was 12.6 µM [falling, partial curve].

In the case of `Cn1c(=O)oc2cc(S(=O)(=O)NCc3ccncc3)ccc21`, under setting [1], the AC50 is 3.98 µM [falling, full curve, poor fit].

Turning to `CCSc1nnc(NC(=O)c2ccccn2)s1`, the concentration at half-maximal activity (AC50) reads like this: under setting [2], 25.1 µM [rising, partial curve]; under setting [3], 12.6 µM [falling, partial curve].

As to `CC(C)(C)OC(=O)N1CCC(c2c(C(=O)NCc3ccc(F)cc3)cnn2-c2ccc(F)cc2)CC1`, the AC50 under setting [1] is 7.94 µM [falling, full curve].

As to `COc1cccc(C(=O)N(Cc2sccc2C)C2CCS(=O)(=O)C2)c1` (stereo unspecified), the AC50 under setting [1] is 3.98 µM [rising, partial curve, poor fit].

Take `COc1ccc(OCC2c3cc(OC)c(OC)cc3CCN2C(=O)c2ccc(F)cc2)cc1` (stereo unspecified): the AC50 under setting [1] was 25.1 µM [falling, partial curve].

Take `Cc1ccc(-c2cn3c(n2)sc2cc(C(=O)NCCCN4CCCCC4)ccc23)cc1`: the AC50 under setting [1] was 6.31 µM [falling, partial curve].

`O=S(=O)(NCc1nc2cccnc2n1Cc1ccc(F)cc1)c1ccc2c(c1)CCCC2`: the AC50 under setting [1] was 39.8 µM [falling, single point].

For `Cc1cc(NC(=O)Cn2c(=O)nc(-c3ccccc3F)c3cc(Cl)ccc32)ccc1Br`, under setting [1], the AC50 was 12.6 µM [falling, partial curve, poor fit].

As for `O=C(CSc1nnc(-c2ccc(Br)cc2)n1C1CCCCC1)N1CCCC1`, the concentration at half-maximal activity (AC50) under setting [1] is 0.0631 µM [falling, full curve].

`CCc1cccc(C)c1NC(=O)CCn1c(=O)c2cccn2c2ccccc21`: the AC50 under setting [1] is 25.1 µM [falling, partial curve].

Regarding `Cc1ccc(-c2nnn(CC(=O)N(CC(=O)NCC3CCCO3)c3ccccc3)n2)o1` (stereo unspecified), the AC50 under setting [1] was 12.6 µM [falling, partial curve].

In the case of `Cc1ccnc(Nc2nc(-c3c(C)nc4sccn34)cs2)c1`, the AC50 by setting is: under setting [2], 7.94 µM [falling, full curve]; under setting [3], 7.94 µM [falling, full curve].

On to `CCOc1ccc(C(=O)Nc2c(C(=O)N3CCN(c4ccccc4F)CC3)oc3ccccc23)cc1`, for which, under setting [1], the concentration at half-maximal activity (AC50) is 25.1 µM [falling, single point].

Regarding `COc1ccc(-c2cc(C(=O)NC(C(=O)O)C(C)C)c(C)o2)cc1OC` (stereo unspecified), the AC50 is 0.794 µM [falling, full curve] under setting [2] and 12.6 µM [falling, partial curve] under setting [3].

With `CCc1nonc1NC(=O)c1oc2ccc(C)cc2c1C`, under setting [1], the half-maximal activity concentration (AC50) was 0.02 µM [rising, full curve, poor fit].

For the compound `CCCn1c(SCC(=O)NCc2ccco2)nnc1C(C)C`, the half-maximal activity concentration (AC50) under setting [1] is 25.1 µM [rising, partial curve, poor fit] [measured here: IkB-luc green channel].

Turning to `CCOc1ccc(N2C(=O)c3n[nH]c(-c4cccs4)c3C2c2cccc(F)c2)cc1` (stereo unspecified), the half-maximal activity concentration (AC50) under setting [1] was 31.6 µM [falling, single point].

For the compound `CCOc1ccccc1CNC(=O)c1ccc2c(c1)nc1n2CCCCC1`, the AC50 under setting [1] was 0.0251 µM [falling, full curve, poor fit].

With `Cc1c(Nc2nc3ccccc3n3c(C)nnc23)cccc1C(=O)O`, the concentration at half-maximal activity (AC50) under setting [1] is 2 µM [falling, full curve].

In the case of `COc1ccc(Br)cc1CNC(=O)CCSCc1ccc(C)cc1`, under setting [1], the AC50 is 20 µM [falling, partial curve].

`O=C(CS(=O)(=O)c1cccc2nsnc12)N1CCN(c2cccc(C(F)(F)F)c2)CC1`: under setting [1], the half-maximal activity concentration (AC50) was 39.8 µM [falling, single point].

As to `O=C(Cn1cc(S(=O)(=O)c2ccccc2)c(=O)c2cc3c(cc21)OCO3)Nc1ccc(Cl)cc1`, the AC50 under setting [1] is 12.6 µM [falling, partial curve].

For the compound `CCNc1cc(N2CCN(C3CCCCC3)CC2)c2noc3c2c1C(=O)c1ccccc1-3`, under setting [1], the AC50 was 39.8 µM [falling, single point].

Regarding `O=C(CSc1nnc(-c2c[nH]c3ccccc23)o1)N1c2ccccc2CCc2ccccc21`, the concentration at half-maximal activity (AC50) under setting [1] is 3.98 µM [falling, full curve].

`COC(=O)c1[nH]c2ccc(Br)cc2c1NC(=O)CN1CCN(C2CCCCC2)CC1`: the concentration at half-maximal activity (AC50) under setting [1] was 39.8 µM [falling, single point].

Consider `CCOC(=O)CSc1nc2ccccc2c(=O)n1-c1cccc(C)c1`, for which the AC50 under setting [1] is 3.16 µM [rising, partial curve].

As to `CC(=O)C1=C(C)NC(=O)NC1c1ccccc1` (stereo unspecified), the half-maximal activity concentration (AC50) under setting [1] was 15.8 µM [falling, partial curve].

Turning to `O=C(O)Cc1sc(Nc2ccccc2)nc1-c1ccccc1`, the AC50 under setting [1] was 39.8 µM [falling, single point].

As to `CN(CCOc1ccc(C[C@H](Nc2ccccc2C(=O)c2ccccc2)C(=O)O)cc1)c1ccccn1`, the AC50 under setting [1] is 39.8 µM [falling, partial curve].

Consider `CCN(CC)c1ccc2c(c1)oc(=O)c1c(Cl)cc(=O)oc12`, for which, under setting [1], the AC50 was 3.16 µM [falling, full curve].

As to `COc1ccc(S(=O)(=O)NCCS(=O)(=O)N2CCN(c3ccccc3)CC2)cc1C`, the AC50 under setting [1] was 31.6 µM [falling, single point].

Take `COc1ccc(N2CCN(Cc3cccn3-c3nnc(N4CCN(C5CCCCC5)CC4)s3)CC2)cc1`: under setting [1], the half-maximal activity concentration (AC50) was 12.6 µM [falling, partial curve].

As to `Cc1nc(SC(C)C(=O)Nc2ccccc2Cl)cc(-c2ccccc2)n1` (stereo unspecified), the AC50 under setting [1] is 10 µM [falling, partial curve].

Regarding `CCOc1ccc(-n2nc(CO)c(C(=O)NCc3cccs3)n2)cc1`, under setting [1], the AC50 was 39.8 µM [falling, single point].

As to `CC(Oc1ccc(Br)cc1)C(=O)Nc1ncn[nH]1` (stereo unspecified), under setting [1], the AC50 was 25.1 µM [falling, partial curve, poor fit].

Regarding `CCCCNc1nc2c(c(=O)n(C)c(=O)n2C)n1CC(O)COc1ccccc1C` (stereo unspecified), the AC50 under setting [1] was 25.1 µM [falling, single point].

As usually defined, the AC50 is the concentration giving half of the maximal activity seen.
